# Test results as given in article PMC6028986.
# Chains of the proteins cited; added tags and fusions are not shown.
# UniProt Q9Y6G5: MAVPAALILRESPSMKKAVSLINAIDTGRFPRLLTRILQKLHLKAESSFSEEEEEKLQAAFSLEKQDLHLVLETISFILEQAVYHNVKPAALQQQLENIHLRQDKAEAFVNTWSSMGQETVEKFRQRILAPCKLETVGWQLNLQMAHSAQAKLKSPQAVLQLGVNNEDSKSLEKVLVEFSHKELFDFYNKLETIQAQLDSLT
# These are yes or no findings as the source states them, for the method shown. Binding seen in cells or lysates may run through a third protein. Some binding calls cover weakened binding; strength is not graded here. Where a sequence is shown, tags or fusion partners need not be part of it.
# B1: α-HA ENaC (protein, UniProt P37088 1-669)
# chain: MEGNKLEEQDSSPPQSTPGLMKGNKREEQGLGPEPAAPQQPTAEEEALIEFHRSYRELFEFFCNNTTIHGAIRLVCSQHNRMKTAFWAVLWLCTFGMMYWQFGLLFGEYFSYPVSLNINLNSDKLVFPAVTICTLNPYRYPEIKEELEELDRITEQTLFDLYKYSSFTTLVAGSRSRRDLRGTLPHPLQRLRVPPPPHGARRARSVASSLRDNNPQVDWKDWKIGFQLCNQNKSDCFYQTYSSGVDAVREWYRFHYINILSRLPETLPSLEEDTLGNFIFACRFNQVSCNQANYSHFHHPMYGNCYTFNDKNNSNLWMSSMPGINNGLSLMLRAEQNDFIPLLSTVTGARVMVHGQDEPAFMDDGGFNLRPGVETSISMRKETLDRLGGDYGDCTKNGSDVPVENLYPSKYTQQVCIHSCFQESMIKECGCAYIFYPRPQNVEYCDYRKHSSWGYCYYKLQVDFSSDHLGCFTKCRKPCSVTSYQLSAGYSRWPSVTSQEWVFQMLSRQNNYTVNNKRNGVAKVNIFFKELNYKTNSESPSVTMVTLLSNLGSQWSLWFGSSVLSVVEMAELVFDLLVIMFLMLLRRFRSRYWSPGRGGRGAQEVASTLASSPPSHFCPHPMSLSLSQPGPAPSPALTAPPPAYATLGPRPSPGGSAGASSSTCPLGGP
# B2: β-HA ENaC (protein, UniProt P51168 1-640)
# chain: MHVKKYLLKGLHRLQKGPGYTYKELLVWYCDNTNTHGPKRIICEGPKKKAMWFLLTLLFAALVCWQWGIFIRTYLSWEVSVSLSVGFKTMDFPAVTICNASPFKYSKIKHLLKDLDELMEAVLERILAPELSHANATRNLNFSIWNHTPLVLIDERNPHHPMVLDLFGDNHNGLTSSSASEKICNAHGCKMAMRLCSLNRTQCTFRNFTSATQALTEWYILQATNIFAQVPQQELVEMSYPGEQMILACLFGAEPCNYRNFTSIFYPHYGNCYIFNWGMTEKALPSANPGTEFGLKLILDIGQEDYVPFLASTAGVRLMLHEQRSYPFIRDEGIYAMSGTETSIGVLVDKLQRMGEPYSPCTVNGSEVPVQNFYSDYNTTYSIQACLRSCFQDHMIRNCNCGHYLYPLPRGEKYCNNRDFPDWAHCYSDLQMSVAQRETCIGMCKESCNDTQYKMTISMADWPSEASEDWIFHVLSQERDQSTNITLSRKGIVKLNIYFQEFNYRTIEESAANNIVWLLSNLGGQFGFWMGGSVLCLIEFGEIIIDFVWITIIKLVALAKSLRQRRAQASYAGPPPTVAELVEAHTNFGFQPDTAPRSPNTGPYPSEQALPIPGTPPPNYDSLRLQPLDVIESDSEGDAI
# B3: γ-HA ENaC (protein, UniProt P51170 1-649)
# chain: MAPGEKIKAKIKKNLPVTGPQAPTIKELMRWYCLNTNTHGCRRIVVSRGRLRRLLWIGFTLTAVALILWQCALLVFSFYTVSVSIKVHFRKLDFPAVTICNINPYKYSTVRHLLADLEQETREALKSLYGFPESRKRREAESWNSVSEGKQPRFSHRIPLLIFDQDEKGKARDFFTGRKRKVGGSIIHKASNVMHIESKQVVGFQLCSNDTSDCATYTFSSGINAIQEWYKLHYMNIMAQVPLEKKINMSYSAEELLVTCFFDGVSCDARNFTLFHHPMHGNCYTFNNRENETILSTSMGGSEYGLQVILYINEEEYNPFLVSSTGAKVIIHRQDEYPFVEDVGTEIETAMVTSIGMHLTESFKLSEPYSQCTEDGSDVPIRNIYNAAYSLQICLHSCFQTKMVEKCGCAQYSQPLPPAANYCNYQQHPNWMYCYYQLHRAFVQEELGCQSVCKEACSFKEWTLTTSLAQWPSVVSEKWLLPVLTWDQGRQVNKKLNKTDLAKLLIFYKDLNQRSIMESPANSIEMLLSNFGGQLGLWMSCSVVCVIEIIEVFFIDFFSIIARRQWQKAKEWWAWKQAPPCPEAPRSPQGQDNPALDIDDDLPTFNSALHLPPALGTQVPGTPPPKYNTLRLERAFSNQLTDTQMLDEL
# Target: GST-COMMD10 (UniProt Q9Y6G5)
# Assay: pull-down; approximately 50 μg of GST or GST fusion protein on glutathione-agarose beads incubated 3 h at 4°C with lysate of transfected COS7 cells (TBS: 10 mM Tris pH 8.0, 150 mM NaCl, 1% Triton X-100, protease inhibitors; pre-cleared with GST alone); four washes in lysis buffer; anti-HA Western blot; only the target purified
row,Binder,binding
1,B1,binds
2,B2,binds
3,B3,binds
